In publication PMC5612990 (2017):
Ends that are not written are not given here.

Assay: general procedure: Fmoc solid-phase peptide synthesis
Conditions: conjugation step

CTVRTSAD
conjugation yield: 82%
